PubChem BioAssay AID1224830 | NIAID | 2016

Purpose: 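Regulators of TLR4 signalling towards TNF-alpha in macrophage-like cells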 (primary screen)
Cells: human THP-1 monocytic leukaemia cells, TNF dual-luciferase reporter clone, PMA-differentiated to macrophage-like cells
Reagent: siRNA pool against human genes, 50 nM
Timing: LPS for 4 h, given about 3 days after siRNA transfection
Treatment: bacterial LPS (TLR4 ligand), 10 ng/ml
Detection: 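TNF firefly reporter luminescence divided by renilla, normalised to the plate median, then turned into a robust z-score for each replicate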
Reading the numbers: TNF reporter robust z-score: higher = stronger TNF reporter response to LPS
Call rule: 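a well is active when its z-score exceeds 2.8 or falls below -1.5; control wells carry no call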
The deposit covers about 18,000 reagents; shown is an unselected part. Of all reagents, about 2,900 (16%) were called active. 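Calls are made per well; low scores hint the gene aids the LPS response, high scores that it dampens it.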 Repeated entries: four replicate wells of each siRNA pool.

Silencing of PHOX2A gave: TNF reporter robust z-score -0.88; inactive.
Depletion of PHOX2A gave: TNF reporter robust z-score 0.75; inactive.
PHOX2A scored TNF reporter robust z-score -0.42; inactive.
Depletion of PHOX2A gave: TNF reporter robust z-score -0.63; inactive.
Against SORD, the values are TNF reporter robust z-score 0.19; inactive.
After knock-down of SORD, the screen gave TNF reporter robust z-score -0.13; inactive.
For SORD the deposit lists TNF reporter robust z-score 0.41; inactive.
SORD gave TNF reporter robust z-score 0.02; inactive.
DYDC1 scored TNF reporter robust z-score -0.5; inactive.
DYDC1 showed TNF reporter robust z-score -0.83; inactive.
Knock-down of DYDC1 gave: TNF reporter robust z-score 0; inactive.
With knock-down of DYDC1, the record shows TNF reporter robust z-score -0.41; inactive.
Depletion of ATRNL1 resulted in: TNF reporter robust z-score 0.34; inactive.
With knock-down of ATRNL1 the results were TNF reporter robust z-score -0.11; inactive.
After knock-down of ATRNL1 the results were TNF reporter robust z-score -0.34; inactive.
Against ATRNL1, the entry reads TNF reporter robust z-score 0.09; inactive.
Against AGBL4 the deposit lists TNF reporter robust z-score -0.34; inactive.
AGBL4 scored TNF reporter robust z-score 0.12; inactive.
After knock-down of AGBL4, the record shows TNF reporter robust z-score -0.76; inactive.
Knock-down of AGBL4 gave: TNF reporter robust z-score -1.31; inactive.
